# Assay results reported in US20210252159A1 (priority 2018, published 2021).
# Assay: general procedure: Fmoc solid-phase peptide synthesis
# Conditions: conjugation step, TFA salts
substance,measurement,setting,value
des-ciclesonide-Boc-Cysteine-Peptide,final LC-MS purity,RP-HPLC,97%
same,conjugation yield,,62%
